Earlier results, collected in US20080182848A1, “Novel Process” (priority 2005, published 2008).
At least one structure is not confirmed: it was looked up by name or label, or the drawing left a doubt.

How the values were obtained:
GABA-A-receptors = conditions: relative to the R-enantiomer; cited from earlier work
[1] = compared with racemic zopiclone; has been reported; cited from earlier work

## CN1CCN(C(=O)O[C@H]2c3nccnc3C(=O)N2c2ccc(Cl)cn2)CC1 (racemic) [eszopiclone]
GABA-A-receptors
  higher binding affinity to GABA-A-receptors than the R-enantiomer: approximately 50 fold
[1]
  hypnotic activity relative to racemic zopiclone: two-fold more
